PubChem BioAssay AID1224830 | NIAID | 2016
The whole screen tested about 18,000 reagents; shown is a random part of them. Of all reagents, about 2,900 (16%) are marked active. 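Calls are made per well; low scores hint the gene aids the LPS response, high scores that it dampens it.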 A number with no mark means an inactive call. Repeated entries: four replicate wells of each siRNA pool.

- Assay: 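Regulators of TLR4 signalling towards TNF-alpha in macrophage-like cells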 (primary screen)
- Cell system: human THP-1 monocytic leukaemia cells, TNF dual-luciferase reporter clone, PMA-differentiated to macrophage-like cells
- Knock-down reagent: siRNA pool against human genes, 50 nM
- Timing: LPS for 4 h, given about 3 days after siRNA transfection
- Challenge: bacterial LPS (TLR4 ligand), 10 ng/ml
- Measured: 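TNF firefly reporter luminescence divided by renilla, normalised to the plate median, then turned into a robust z-score for each replicate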
- Scale: TNF reporter robust z-score: higher = stronger TNF reporter response to LPS
- Hit rule: 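Each well counts as active if its z-score is over 2.8 or under -1.5; controls are left without a call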

Knock-down of ARMCX1 gave: TNF reporter robust z-score 0.39.
Against ARMCX1, the values are TNF reporter robust z-score 0.82.
Knock-down of ARMCX1 resulted in: TNF reporter robust z-score 1.46.
For ARMCX1, the entry reads TNF reporter robust z-score 1.22.
GGTLC1 scored TNF reporter robust z-score -0.02.
Against GGTLC1, the entry reads TNF reporter robust z-score 1.31.
Silencing of GGTLC1 gave: TNF reporter robust z-score 2.
Against GGTLC1 the deposit lists TNF reporter robust z-score 0.09.
HSF1 gave TNF reporter robust z-score 0.86.
After knock-down of HSF1, the record shows TNF reporter robust z-score 1.35.
With knock-down of HSF1, the record shows TNF reporter robust z-score 0.85.
HSF1 scored TNF reporter robust z-score 1.83.
With knock-down of CARD9, the screen gave TNF reporter robust z-score 1.25.
Knock-down of CARD9 resulted in: TNF reporter robust z-score -0.23.
With knock-down of CARD9 the results were TNF reporter robust z-score -0.37.
Depletion of CARD9 resulted in: TNF reporter robust z-score -0.43.
FBXL18 showed TNF reporter robust z-score 4.32 (active).
Knock-down of FBXL18 came out at: TNF reporter robust z-score -0.68.
After knock-down of FBXL18, the record shows TNF reporter robust z-score -1.03.
Knock-down of FBXL18 resulted in: TNF reporter robust z-score -1.32.
Knock-down of RSPH1 resulted in: TNF reporter robust z-score -0.48.
Knock-down of RSPH1 resulted in: TNF reporter robust z-score 0.53.
Against RSPH1 the deposit lists TNF reporter robust z-score 0.12.
RSPH1 gave TNF reporter robust z-score 0.44.
Against PPP1R12B, the values are TNF reporter robust z-score -0.45.
Against PPP1R12B, the entry reads TNF reporter robust z-score 1.
For PPP1R12B the deposit lists TNF reporter robust z-score 0.14.
After knock-down of PPP1R12B, the record shows TNF reporter robust z-score -1.38.
For C10orf90 the deposit lists TNF reporter robust z-score 0.7.
Against C10orf90, the values are TNF reporter robust z-score 0.18.
C10orf90 gave TNF reporter robust z-score 1.11.
Knock-down of C10orf90 resulted in: TNF reporter robust z-score 1.41.
CENPQ showed TNF reporter robust z-score 0.39.
Against CENPQ the deposit lists TNF reporter robust z-score 0.75.
Knock-down of CENPQ came out at: TNF reporter robust z-score 0.06.
For CLEC14A the deposit lists TNF reporter robust z-score -0.02.
Silencing of CLEC14A resulted in: TNF reporter robust z-score 0.84.
After knock-down of CLEC14A the results were TNF reporter robust z-score -0.12.
Silencing of CLEC14A resulted in: TNF reporter robust z-score 0.7.
Knock-down of TRIM22 came out at: TNF reporter robust z-score -0.39.
TRIM22 scored TNF reporter robust z-score -0.71.
With knock-down of TRIM22, the record shows TNF reporter robust z-score 0.05.
Knock-down of TRIM22 gave: TNF reporter robust z-score 1.37.
With knock-down of CD79B, the record shows TNF reporter robust z-score 3.09 (active).
Knock-down of CD79B resulted in: TNF reporter robust z-score 1.52.
For CD79B the deposit lists TNF reporter robust z-score 1.7.
CD79B showed TNF reporter robust z-score 1.9.

7 entries already listed, ordered by “TNF reporter robust z-score”, low to high:
CLEC14A: TNF reporter robust z-score = -0.02
CENPQ: TNF reporter robust z-score = 0.06
CENPQ: TNF reporter robust z-score = 0.39
CENPQ: TNF reporter robust z-score = 0.75
CLEC14A: TNF reporter robust z-score = 0.84
C10orf90: TNF reporter robust z-score = 1.11
C10orf90: TNF reporter robust z-score = 1.41
